Test results: patent US6875578B2, “System for cell-based screening” (priority 1997, dated 2005)

Test system: NF-κB
Experiment: NF-κB immunolocalization in toxin treated 3T3 cells
Assay type: cell-based
Text: For further studies, we characterized endogenous NF-κB activation by immunolocalization in toxin treated cells. The NF-κB antibodies used in this study were purchased from Santa Cruz Biotechnology, Inc. (Santa Cruz, Calif.), and secondary antibodies are from Molecular Probes (Eugene, Oreg.).
For the 3T3 and SNB19 cell types, we determined the effective concentrations that yield response levels of 50% of the maximum (EC50), expressed in units of mass per volume (ng/ml) and units of molarity. Based on molecular weights of 17 kD for both TNFα and IL-1α, the EC50 levels for these two compounds with 3T3 and SNB19 cell types are given in units of molarity in Table 1.
For these experiments, either 10 or 100 TNFα-treated 3T3 or SNB19 cells/well were tested. On the basis of the standard deviations measured for these samples, and by taking t-values for the student's t-test, we have estimated the minimum detectable doses for each case of cell type, compound, number of cells per well, and for different choices of how many wells are sampled per condition. The latter factor determines the number of degrees of freedom that are provided in the sample of data. […] If the false positive rate is relaxed to 20%, a concentration of approximately half that value can be detected (0.83 ng/ml). […]

tumor necrosis factor [TNFα] gave a minimum detectable dose (1% false negative and 1% false positive rates, 100 cells per well, 12 or 16 wells) of ~0.15 ng/mL and a minimum detectable dose (false positive rate relaxed to 20%) of ~0.83 ng/mL.
